About 220 (0.063%) of roughly 350,000 compounds were called active. The shares of active, inactive and inconclusive entries below differ from those in the screen. Calls follow the shape of the dose curve; as a rule, active = well fitted activation curve with a large enough effect; inconclusive = small, poorly fitted or top-dose-only effect; inactive = no such curve, though single readings can be large or run the other way. A potency beside an inconclusive call is a rough fit, not a confirmed value.
Test: qHTS for Activators of Integrin-Mediated Alleviation for Muscular Dystrophy; also: nearly all actives have a fitted effect of over 60% in size
Conditions: alpha7betagal myoblasts, beta-gal FDG fluorescence, 48 h; series mostly up to 38.3 µM
Outline: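 alpha7betagal+/- myoblasts (passage 13, 250/well) treated 48 h at 37C with compounds at 1:260 dilution of DMSO stock. Lysed, then beta-galactosidase activity read as FDG fluorescence (ex 480/em 540) after 30 min, with pre-read for autofluorescence.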
Potency is read from the fitted curve at half-maximal effect.

Potency, inactive:
COC(=O)Cn1c(CN2CCN(C(=O)c3ccco3)CC2)nc2c1c(=O)n(C)c(=O)n2C
O=C1c2ccccc2C(=O)c2[nH]cnc21
CCN1CCC2(CC1)N=C(c1ccc(F)cc1)C(=S)N2
CC(=O)NC(CC(=O)NNC(=O)COc1c(C)cccc1C)c1ccccc1 (stereo not given)
O=C(NC(=S)Nc1ccc(Cl)cn1)c1cccs1
c1ccc(N2CCN(Cc3nc4ccccc4[nH]3)CC2)nc1
C=CCOc1ccc(CNn2cn[nH]c2=S)cc1OC
Cn1c(N)c(C(=O)COC(=O)c2ccccc2C(=O)c2ccc(Cl)c([N+](=O)[O-])c2)c(=O)n(C)c1=O
CCOC(=O)c1sc(NC(C)=O)cc1C
O=[N+]([O-])c1c(Nc2ccccc2O)cc(N2CCOCC2)c2nonc12
O=[N+]([O-])c1ccccc1CN1CCN(Cc2c[nH]c3ccccc23)CC1
CCN1CCN(C(c2cccs2)C(C)NC(=O)c2c(F)cccc2F)CC1 (stereo not given)
CC(C)(C)n1cnc2cc(NCc3cccs3)ccc21
COc1ccc(N(C(=O)CCl)C(C(=O)NCCc2ccccc2)c2cccs2)cc1Cl (stereo not given)
COc1cccc(-c2ccc(NC(=O)C3CCCN(Cc4cnn(C(C)C)c4)C3)cc2)c1 (stereo not given)
COc1ccc(-c2cc(C(F)(F)F)c3c(N)c(C(=O)NCCSC)sc3n2)cc1

Potency, inconclusive:
CCOc1ccc(NC(=O)C2Cc3ccccc3CN2S(=O)(=O)CC)cc1 (stereo not given) 17.8 µM [activator, single point]
COc1ccc(C(=O)N[C@H](C(=O)Nc2sccc2C(N)=O)C(C)C)cc1 0.447 µM [activator, partial curve, poor fit]
Cc1nc(CCNS(=O)(=O)c2cccnc2)cs1 14.1 µM [activator, single point]
CC(=O)C1=C(O)C(=O)N(CCc2c[nH]c3ccccc23)C1c1ccccc1 (stereo not given) 14.1 µM [activator, single point]
O=c1c(C=Nc2ccc(Cl)cc2)c[nH]n1-c1cccc(Cl)n1 17.8 µM [activator, single point]
COc1ccc(S(=O)(=O)N2c3ccccc3NC(=O)CC2C)cc1 (stereo not given) 28.2 µM [activator, single point]
O=C(CCNC(=O)c1ccc(Br)cc1)NCCCN1CCOCC1 0.501 µM [activator, full curve, poor fit]
COc1ccc(CC(NC(C)=O)C(=O)NC2CCN(C(=O)c3ccccc3F)CC2)cc1 (stereo not given) 14.1 µM [activator, single point]
CCOC(=O)C1CCCN(C(=O)c2cn(CC)c3ccc(S(=O)(=O)N(C)C)cc3c2=O)C1 (stereo not given) 5.01 µM [activator, partial curve, poor fit]
O=C(COC(=O)CNC(=O)c1ccccc1F)NCC(F)(F)F 28.2 µM [activator, single point]
CC1CCCCN1CCNC(=O)c1cc2c(=O)n(C)c3ccccc3c2n1C (stereo not given) 5.01 µM [activator, single point]
Cc1oc2c(c(C)cc3oc(=O)c(CC(=O)N[C@H](C(=O)O)C(C)C)c(C)c32)c1C 3.55 µM [activator, single point]
CS(=O)(=O)N(CC(=O)N1CCN(Cc2ccc3c(c2)OCO3)CC1)C1CCCCC1 3.98 µM [activator, single point]
NS(=O)(=O)c1cccc(NC(=O)CN2C(=O)C(=O)N(Cc3ccccc3)C2=O)c1 5.01 µM [activator, single point]
O=C(CCc1ccccc1)NC1C2CC3CC(C2)CC1C3 (stereo not given) 3.16 µM [activator, partial curve, poor fit]
CCOc1cc(CNCCSc2nnnn2C)cc(Br)c1OCc1ccc(F)cc1 2.51 µM [activator, partial curve, poor fit]
COc1cc2c(cc1OC)CN(C(=O)COc1ccccc1[N+](=O)[O-])CC2 10 µM [activator, single point]
CC(=O)c1c(C)[nH]c(C(=O)NCc2cccs2)c1C 11.2 µM [activator, single point]
COc1ccc(C)cc1Nc1nc(-c2c(C)[nH]c3ccccc23)cs1 0.631 µM [activator, full curve, poor fit]
CCN(C(=S)Nc1ccc(C(C)=O)cc1)C1CCCCC1 14.1 µM [activator, single point]
S=C(Nc1cccnc1)N1CCc2ccccc21 22.4 µM [activator, single point]
CC1=Nc2ccc(Br)cc2C(c2ccccc2)N1CC(=O)NN (stereo not given) 5.01 µM [activator, single point]
COC(=O)CSc1nc2sccc2c(=O)n1-c1ccccc1 3.55 µM [activator, single point]
Cc1ccc(C2C(C#N)=C(N)Oc3n[nH]c(-c4cccnc4)c32)o1 (stereo not given) 3.55 µM [activator, single point]
O=C(COc1ccc(F)cc1Br)NCC1(N2CCOCC2)CCCCC1 11.2 µM [activator, single point]
COc1ccc(-c2nc3c(c(=O)[nH]c(=O)n3Cc3ccccc3)n2CCO)cc1 5.01 µM [activator, single point]
CCCOc1ccc2c(C)c(CC(=O)OC)c(=O)oc2c1 3.55 µM [activator, partial curve, poor fit]
CN(C)c1ccc(C(=O)Nc2ccc(CN3CCS(=O)(=O)CC3)cc2)cc1 3.16 µM [activator, full curve]
Cc1ccc(SCCN2CCN(C)CC2)cc1 28.2 µM [activator, single point]

Quoted from the results shown for reference:
Potency, inconclusive:
CC(=O)c1c(C)[nH]c(C(=O)NCc2cccs2)c1C 11.2 µM [activator, single point]
COc1ccc(C)cc1Nc1nc(-c2c(C)[nH]c3ccccc23)cs1 0.631 µM [activator, full curve, poor fit]

— PubChem BioAssay AID624291 (National Center for Advancing Translational Sciences (NCATS), 2012)
